PubChem BioAssay AID1259290 – Sanger Institute, 2017

Test: 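Identify kinases needed for colorectal cancer cell survival, with or without anchor drugs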 (primary screen)
Cells: human SNUC1 colorectal cancer cells
Reagent: siRNA pool against human genes
Challenge: anchor drugs BYL719 1 µM, cetuximab 5 µg/ml or trametinib 10 nM, or DMSO vehicle alone
Measured: 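Cell viability relative to a non-targeting siRNA control, replicate-averaged, as robust z-score for knock-down alone, plus a synergy score for each anchor drug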
Reading the numbers: viability z-score, siRNA alone: higher = more viable cells; low values mean essential gene; viability vs control, siRNA alone: higher = more viable cells; synergy score with BYL719 and synergy score with Cetuximab and synergy score with Trametinib: higher = stronger synthetic lethal effect with drug
Hit rule: 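Essential when the robust viability z-score with siRNA alone falls below -3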
Meaning of the calls: active = essential: knock-down alone cut viability (z below -3); inactive = no clear viability loss with knock-down alone
This is one part, drawn at random, of 794 reagents tested. Over the whole deposit, 9 (1.1%) got an active call. 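Calls rest on knock-down alone, not drug synergy; synergy above 0.15 was grouped apart and does not affect calls.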 Viability is capped at 1. Not stated in the record: the amount of reagent, the time to read-out.

| gene | viability z-score, siRNA alone | viability vs control, siRNA alone | synergy score with BYL719 | synergy score with Cetuximab | synergy score with Trametinib | outcome |
| --- | --- | --- | --- | --- | --- | --- |
| MAP3K4 | 0.936 | 1 | -0.101 | -0.0447 | -0.0309 | inactive |
| PIK3C2A | -1.71 | 0.762 | -0.245 | 0.0121 | -0.061 | inactive |
| GRK4 | 0.161 | 0.93 | 0.112 | 0.048 | 0.056 | inactive |
| CAMK2A | -0.995 | 0.826 | -0.116 | -0.0469 | -0.0852 | inactive |
| CKS2 | 0.936 | 1 | -0.167 | 0.0373 | 0.0898 | inactive |
| MAP3K3 | 0.0578 | 0.921 | -0.205 | 0.0165 | -0.0357 | inactive |
| CHUK | 0.936 | 1 | -0.126 | 0.0958 | -0.117 | inactive |
| BUB1B | 0.247 | 0.938 | -0.0735 | -0.0303 | 0.123 | inactive |
| PRKCSH | -1.41 | 0.789 | -0.163 | -0.0641 | -0.0659 | inactive |
| CDKN2C | -0.813 | 0.842 | -0.114 | 0.00983 | 0.0119 | inactive |
| WNK4 | 0.936 | 1 | -0.198 | -0.0447 | -0.0444 | inactive |
| BMP2K | 0.936 | 1 | -0.0825 | 0.0954 | -0.014 | inactive |
| AURKB | -1.69 | 0.763 | -0.0991 | -0.0413 | 0.148 | inactive |
| AGK | 0.491 | 0.96 | -0.184 | -0.0831 | -0.0861 | inactive |
| DDR1 | 0.936 | 1 | -0.198 | -0.0447 | -0.0382 | inactive |
| ACVRL1 | 0.936 | 1 | -0.186 | -0.0447 | 0.0888 | inactive |
| SGK1 | 0.648 | 0.974 | -0.165 | 0.0657 | 0.0179 | inactive |
| BPTF | -0.85 | 0.839 | -0.174 | 0.00279 | -0.118 | inactive |
| FOXP1 | 0.936 | 1 | 0.0953 | 0.169 | 0.144 | inactive |
| CHD9 | -1.69 | 0.764 | -0.104 | -0.0129 | -0.0639 | inactive |
| DDR2 | 0.936 | 1 | -0.142 | -0.0447 | -0.0716 | inactive |
| CDK18 | 0.936 | 1 | -0.115 | -0.0447 | -0.0216 | inactive |
| KDR | 0.701 | 0.979 | -0.205 | -0.0381 | -0.16 | inactive |
| GRK1 | -0.851 | 0.839 | 0.118 | 0.014 | -0.0157 | inactive |
| NTRK3 | 0.936 | 1 | 0.0299 | -0.0197 | 0.084 | inactive |
| CDK20 | 0.936 | 1 | 0.011 | 0.0801 | 0.0178 | inactive |
| SMC1A | -0.697 | 0.853 | 0.142 | -0.0116 | 0.155 | inactive |
| PDK4 | 0.841 | 0.991 | -0.08 | 0.11 | -0.0383 | inactive |
| NEK5 | -1.11 | 0.816 | -0.252 | 0.00695 | -0.0623 | inactive |
| RPS6KA4 | -0.212 | 0.897 | -0.141 | -0.02 | 0.0238 | inactive |
| MAP4K1 | -1.83 | 0.75 | 0.0364 | -0.267 | -0.00954 | inactive |
| MAP3K2 | 0.867 | 0.994 | 0.0622 | -0.0259 | -0.0644 | inactive |
| PRKD1 | 0.936 | 1 | -0.0346 | -0.0447 | -0.0453 | inactive |
| ALK | 0.626 | 0.972 | 0.115 | 0.00501 | 0.0588 | inactive |
| HK3 | -0.0301 | 0.913 | -0.0805 | 0.0232 | -0.00937 | inactive |
| CALM3 | 0.153 | 0.929 | -0.0607 | -0.0451 | -0.0566 | inactive |
| PRKCA | 0.567 | 0.967 | -0.167 | 0.0147 | -0.0542 | inactive |
| DUSP21 | -0.571 | 0.864 | -0.137 | -0.0113 | 0.00887 | inactive |
| MAST1 | -1.02 | 0.824 | -0.026 | -0.0793 | 0.0397 | inactive |
| AKT3 | -0.524 | 0.868 | -0.199 | -0.0842 | 0.0299 | inactive |
| KIT | 0.68 | 0.977 | -0.212 | 0.141 | 0.0469 | inactive |
| KSR2 | -0.291 | 0.889 | -0.083 | 0.0273 | 0.0402 | inactive |
| PRKAR1A | 0.318 | 0.944 | -0.0104 | -0.0653 | 0.0636 | inactive |
| DAPK3 | -1.85 | 0.749 | -0.187 | -0.0225 | -0.101 | inactive |
| TBCK | 0.516 | 0.962 | -0.134 | 0.0642 | 0.085 | inactive |
| GRK2 | 0.0791 | 0.923 | -0.111 | -0.0497 | 0.0162 | inactive |
| NUAK2 | -2.31 | 0.708 | -0.173 | -0.324 | -0.0562 | inactive |
| MAP4K5 | -1.04 | 0.822 | -0.136 | 0.0442 | 0.00375 | inactive |
| VRK2 | -0.978 | 0.828 | -0.097 | -0.00921 | 0.0439 | inactive |
| CDK7 | 0.819 | 0.989 | -0.207 | -0.0548 | 0.0809 | inactive |
| PIM2 | 0.936 | 1 | 0.0819 | -0.0366 | 0.128 | inactive |
| GUCY2C | 0.256 | 0.939 | -0.246 | -0.103 | -0.0291 | inactive |
| NME2 | 0.936 | 1 | -0.198 | -0.0447 | -0.0062 | inactive |
| ITPK1 | 0.545 | 0.965 | -0.0181 | -0.0213 | 0.0864 | inactive |
| CDK5 | 0.195 | 0.933 | -0.105 | -0.109 | -0.057 | inactive |
| TP53 | -0.832 | 0.841 | -0.246 | -0.192 | -0.0477 | inactive |
| CDKL3 | 0.0336 | 0.919 | -0.144 | 0.0029 | -0.0929 | inactive |
| PIK3R3 | 0.936 | 1 | -0.115 | -0.0447 | 0.00227 | inactive |
| WEE1 | -1.31 | 0.798 | -0.0161 | -0.21 | 0.0487 | inactive |
| SCYL1 | -1.29 | 0.799 | -0.329 | -0.19 | -0.138 | inactive |
| RNASEL | -0.0524 | 0.911 | -0.0873 | 0.0692 | -0.0166 | inactive |
| MPP1 | -1.86 | 0.748 | -0.142 | -0.0231 | -0.0607 | inactive |
| PRKCB | 0.244 | 0.938 | 0.0319 | 0.0991 | -0.043 | inactive |
